Only a part is listed here, and it is no random draw. Calls are pooled over several reports, among them a noisy single-well screen.
Assays:
Details in all cases: stereoisomer not certain
OR10A5 (Homo sapiens) = target: T1, OR10A5 (Homo sapiens) (UniProt Q9H207)
T1 sequence (whole entry): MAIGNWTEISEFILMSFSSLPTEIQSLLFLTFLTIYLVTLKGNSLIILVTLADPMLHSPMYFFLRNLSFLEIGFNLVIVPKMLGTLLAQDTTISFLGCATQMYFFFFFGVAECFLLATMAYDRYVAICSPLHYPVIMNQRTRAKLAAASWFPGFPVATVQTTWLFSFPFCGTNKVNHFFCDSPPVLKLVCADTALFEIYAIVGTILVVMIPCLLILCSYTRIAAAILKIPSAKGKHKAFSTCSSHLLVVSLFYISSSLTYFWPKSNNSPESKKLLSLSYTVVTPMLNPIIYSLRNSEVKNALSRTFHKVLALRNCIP
Outline: (§1)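 Transient luciferase assays in mammalian cell lines were common, though methods varied by source. The values come from published papers and their supplementary material, with extra details from the original authors when needed. Responsive refers to a measured signal the original authors judged statistically different from baseline, and non-responsive (inactive) to the remainder.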

Amino acid sequences for entries named in this document (tags omitted). A change or cut given only in a name is not applied to a line headed by its entry.
UniProt Q9H209: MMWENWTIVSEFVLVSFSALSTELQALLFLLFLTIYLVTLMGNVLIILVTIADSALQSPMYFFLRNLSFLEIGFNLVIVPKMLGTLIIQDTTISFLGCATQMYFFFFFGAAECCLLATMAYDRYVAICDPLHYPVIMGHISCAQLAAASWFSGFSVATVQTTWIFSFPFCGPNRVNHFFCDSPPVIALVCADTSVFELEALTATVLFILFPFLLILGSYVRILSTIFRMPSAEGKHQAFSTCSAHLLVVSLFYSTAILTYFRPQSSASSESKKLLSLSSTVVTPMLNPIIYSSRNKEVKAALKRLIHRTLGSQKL
UniProt Q8NGN3: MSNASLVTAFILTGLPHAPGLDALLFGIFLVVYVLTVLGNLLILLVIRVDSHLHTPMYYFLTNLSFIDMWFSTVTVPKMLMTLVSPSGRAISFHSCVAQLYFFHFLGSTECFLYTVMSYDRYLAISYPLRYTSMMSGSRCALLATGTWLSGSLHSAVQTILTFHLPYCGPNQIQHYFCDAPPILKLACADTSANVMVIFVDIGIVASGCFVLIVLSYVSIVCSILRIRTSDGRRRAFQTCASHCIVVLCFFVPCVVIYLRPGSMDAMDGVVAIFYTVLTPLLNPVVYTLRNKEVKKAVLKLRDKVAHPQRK

OR10A6 (Homo sapiens) = target: T2, OR10A6 (Homo sapiens) (UniProt Q8NH74)
T2 sequence (whole entry): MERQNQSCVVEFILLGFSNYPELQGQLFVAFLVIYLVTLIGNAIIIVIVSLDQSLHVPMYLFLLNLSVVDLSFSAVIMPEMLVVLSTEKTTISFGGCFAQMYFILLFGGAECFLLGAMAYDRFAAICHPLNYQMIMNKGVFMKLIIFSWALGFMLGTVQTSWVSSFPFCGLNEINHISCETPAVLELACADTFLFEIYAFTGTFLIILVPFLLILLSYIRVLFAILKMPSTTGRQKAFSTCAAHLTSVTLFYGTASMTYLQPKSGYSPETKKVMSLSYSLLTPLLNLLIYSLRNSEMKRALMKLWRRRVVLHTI
Outline: as §1

OR10A7 (Homo sapiens) = target: T3, OR10A7 (Homo sapiens) (UniProt Q8NGE5)
T3 sequence (whole entry): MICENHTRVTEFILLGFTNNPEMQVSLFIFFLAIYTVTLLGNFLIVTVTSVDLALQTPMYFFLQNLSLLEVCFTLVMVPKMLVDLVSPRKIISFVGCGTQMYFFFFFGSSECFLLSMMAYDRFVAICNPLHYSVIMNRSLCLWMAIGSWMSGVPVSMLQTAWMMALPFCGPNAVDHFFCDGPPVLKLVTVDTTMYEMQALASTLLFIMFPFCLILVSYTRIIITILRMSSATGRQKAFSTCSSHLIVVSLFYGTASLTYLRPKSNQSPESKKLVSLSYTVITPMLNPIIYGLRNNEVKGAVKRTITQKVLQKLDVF
Outline: as §1

OR10AG1 (Homo sapiens) = target: T4, OR10AG1 (Homo sapiens) (UniProt Q8NH19)
T4 sequence (whole entry): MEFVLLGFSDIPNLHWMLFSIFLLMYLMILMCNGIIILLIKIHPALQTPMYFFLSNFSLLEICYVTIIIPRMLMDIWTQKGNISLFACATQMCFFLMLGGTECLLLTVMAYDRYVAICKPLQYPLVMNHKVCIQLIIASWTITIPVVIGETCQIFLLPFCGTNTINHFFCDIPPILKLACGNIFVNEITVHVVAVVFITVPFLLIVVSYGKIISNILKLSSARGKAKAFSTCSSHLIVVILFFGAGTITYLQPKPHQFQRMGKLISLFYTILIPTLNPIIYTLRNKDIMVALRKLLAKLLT
Outline: as §1

OR10C1 (Homo sapiens) = target: T5, OR10C1 (Homo sapiens) (UniProt Q96KK4)
T5 sequence (whole entry): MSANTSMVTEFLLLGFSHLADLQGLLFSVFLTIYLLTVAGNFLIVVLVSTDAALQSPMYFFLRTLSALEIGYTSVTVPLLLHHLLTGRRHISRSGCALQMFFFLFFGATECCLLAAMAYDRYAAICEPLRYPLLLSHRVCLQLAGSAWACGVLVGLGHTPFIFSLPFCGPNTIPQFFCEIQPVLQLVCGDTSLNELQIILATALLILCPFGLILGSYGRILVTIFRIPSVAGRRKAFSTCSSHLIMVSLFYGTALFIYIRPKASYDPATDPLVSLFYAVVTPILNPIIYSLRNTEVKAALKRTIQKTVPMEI
Outline: as §1

OR10G6 (Homo sapiens) = target: T6, OR10G6 (Homo sapiens) (UniProt Q8NH81)
T6 sequence (whole entry): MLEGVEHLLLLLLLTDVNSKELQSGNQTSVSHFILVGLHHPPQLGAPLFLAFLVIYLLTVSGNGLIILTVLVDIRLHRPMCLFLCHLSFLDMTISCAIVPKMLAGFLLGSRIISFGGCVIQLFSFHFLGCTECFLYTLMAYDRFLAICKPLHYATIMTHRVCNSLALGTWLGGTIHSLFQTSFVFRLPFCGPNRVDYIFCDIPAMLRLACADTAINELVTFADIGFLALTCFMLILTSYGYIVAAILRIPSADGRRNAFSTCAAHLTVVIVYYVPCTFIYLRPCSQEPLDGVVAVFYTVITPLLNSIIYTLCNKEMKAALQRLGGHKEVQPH
Outline: as §1

OR10G7 (Homo sapiens) = target: T7, OR10G7 (Homo sapiens) (UniProt Q8NGN6)
T7 sequence (whole entry): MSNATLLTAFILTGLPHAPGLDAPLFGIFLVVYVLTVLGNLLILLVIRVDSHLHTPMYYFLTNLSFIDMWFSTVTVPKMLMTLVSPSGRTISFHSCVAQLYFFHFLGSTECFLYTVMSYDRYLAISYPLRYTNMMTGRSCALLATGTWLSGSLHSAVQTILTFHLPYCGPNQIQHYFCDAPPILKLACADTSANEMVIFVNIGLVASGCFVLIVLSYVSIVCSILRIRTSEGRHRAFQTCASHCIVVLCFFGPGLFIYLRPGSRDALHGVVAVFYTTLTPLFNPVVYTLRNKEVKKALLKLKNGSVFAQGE
Outline: as §1

OR10G3 (Homo sapiens) = target: T8, OR10G3 (Homo sapiens) (UniProt Q8NGC4)
T8 sequence (whole entry): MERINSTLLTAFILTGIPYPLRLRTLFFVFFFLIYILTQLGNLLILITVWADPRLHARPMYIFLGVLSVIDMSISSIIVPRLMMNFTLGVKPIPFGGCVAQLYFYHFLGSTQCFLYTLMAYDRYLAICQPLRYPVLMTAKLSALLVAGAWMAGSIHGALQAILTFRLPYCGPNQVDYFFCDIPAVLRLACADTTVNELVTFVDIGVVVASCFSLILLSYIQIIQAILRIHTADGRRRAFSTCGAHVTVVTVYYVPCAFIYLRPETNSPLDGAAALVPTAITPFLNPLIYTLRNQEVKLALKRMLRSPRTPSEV
Outline: as §1

OR10A4 (Homo sapiens) = OR10A4 (Homo sapiens) (UniProt Q9H209)
Outline: as §1

OR10G4 (Homo sapiens) = OR10G4 (Homo sapiens) (UniProt Q8NGN3)
Outline: as §1

Measured: odorant receptor agonist call

CCCCCCCCCC=O
not listed: OR10G3 (Homo sapiens) | OR10A4 (Homo sapiens) | OR10G4 (Homo sapiens)
inactive: all other assays above

CCCCCOC(C)=O
active: OR10A5 (Homo sapiens) | OR10G6 (Homo sapiens)
not listed: OR10A4 (Homo sapiens) | OR10G4 (Homo sapiens)
inactive: all other assays above

CC12C=CCC1C1CCC3CC(=O)CCC3(C)C1CC2 (centres undefined)
not listed: OR10G4 (Homo sapiens)
inactive: all other assays above

O=CCc1ccccc1
active: OR10A5 (Homo sapiens) | OR10G7 (Homo sapiens)
inactive: OR10A6 (Homo sapiens) | OR10A7 (Homo sapiens) | OR10AG1 (Homo sapiens) | OR10C1 (Homo sapiens) | OR10G6 (Homo sapiens)

C=CC(C)(O)CCC=C(C)C (centres undefined)
active: OR10G7 (Homo sapiens)
not listed: OR10G3 (Homo sapiens) | OR10A4 (Homo sapiens) | OR10G4 (Homo sapiens)
inactive: all other assays above

CC(=O)OC1CC2CCC1(C)C2(C)C (centres undefined)
active: OR10G7 (Homo sapiens)
not listed: OR10G3 (Homo sapiens) | OR10A4 (Homo sapiens) | OR10G4 (Homo sapiens)
inactive: all other assays above

CCCCCCCOC(C)=O
active: OR10G7 (Homo sapiens)
not listed: OR10G3 (Homo sapiens) | OR10A4 (Homo sapiens) | OR10G4 (Homo sapiens)
inactive: all other assays above

CCCCCC(=O)O
not listed: OR10G3 (Homo sapiens) | OR10A4 (Homo sapiens) | OR10G4 (Homo sapiens)
inactive: all other assays above

CC(=O)OC(C)(C)C1CC=C(C)CC1 (centres undefined)
active: OR10A5 (Homo sapiens)
not listed: OR10G3 (Homo sapiens) | OR10A4 (Homo sapiens) | OR10G4 (Homo sapiens)
inactive: all other assays above

CC1CCC(C(C)C)C(O)C1 (centres undefined)
not listed: OR10G3 (Homo sapiens) | OR10A4 (Homo sapiens) | OR10G4 (Homo sapiens)
inactive: all other assays above

c1cnccn1
not listed: OR10G3 (Homo sapiens) | OR10A4 (Homo sapiens) | OR10G4 (Homo sapiens)
inactive: all other assays above

CC(C)CCC(=O)O
active: OR10G7 (Homo sapiens)
not listed: OR10G3 (Homo sapiens) | OR10A4 (Homo sapiens) | OR10G4 (Homo sapiens)
inactive: all other assays above

COc1cc(C)ccc1O
active: OR10G7 (Homo sapiens)
not listed: OR10G3 (Homo sapiens) | OR10A4 (Homo sapiens) | OR10G4 (Homo sapiens)
inactive: all other assays above

CCCCCCCCOC(C)=O
active: OR10G7 (Homo sapiens)
not listed: OR10G3 (Homo sapiens) | OR10A4 (Homo sapiens) | OR10G4 (Homo sapiens)
inactive: all other assays above

CC(C)CC(=O)O
active: OR10G7 (Homo sapiens)
not listed: OR10G3 (Homo sapiens) | OR10A4 (Homo sapiens) | OR10G4 (Homo sapiens)
inactive: all other assays above

CC12CCC(C1)C(C)(C)C2=O (centres undefined)
active: OR10G7 (Homo sapiens)
not listed: OR10G3 (Homo sapiens) | OR10A4 (Homo sapiens) | OR10G4 (Homo sapiens)
inactive: all other assays above

CCCCCCOC(=O)CCC
not listed: OR10G3 (Homo sapiens) | OR10A4 (Homo sapiens) | OR10G4 (Homo sapiens)
inactive: all other assays above

CCC=CCCO
active: OR10G7 (Homo sapiens)
not listed: OR10G3 (Homo sapiens) | OR10A4 (Homo sapiens) | OR10G4 (Homo sapiens)
inactive: all other assays above

O=C1CCCCCCCCCCCC(=O)OCCO1
not listed: OR10G3 (Homo sapiens) | OR10A4 (Homo sapiens) | OR10G4 (Homo sapiens)
inactive: all other assays above

CC(C)(C)c1ccc(CCC=O)cc1
active: OR10A5 (Homo sapiens)
not listed: OR10G3 (Homo sapiens) | OR10A4 (Homo sapiens) | OR10G4 (Homo sapiens)
inactive: all other assays above

CC1=CCC(C(C)(C)O)CC1 (centres undefined)
active: OR10A5 (Homo sapiens)
not listed: OR10G3 (Homo sapiens) | OR10A4 (Homo sapiens) | OR10G4 (Homo sapiens)
inactive: all other assays above

CC(=O)C(C)=O
not listed: OR10G3 (Homo sapiens) | OR10A4 (Homo sapiens) | OR10G4 (Homo sapiens)
inactive: all other assays above

C=CCc1ccc(OC(C)=O)c(OC)c1
active: OR10A5 (Homo sapiens) | OR10G3 (Homo sapiens) | OR10G7 (Homo sapiens)
not listed: OR10A4 (Homo sapiens) | OR10G4 (Homo sapiens)
inactive: all other assays above

COc1cc(C=O)ccc1O
active: OR10G3 (Homo sapiens) | OR10G4 (Homo sapiens) | OR10G7 (Homo sapiens)
not listed: OR10A4 (Homo sapiens)
inactive: all other assays above

Reference: the M2OR odorant receptor database
